{
  "source": "the supplement of paper PMC8551327",
  "note": "Where a name gives a salt, the structure may show the parent alone. This is one part of the list. No stated cut-off is given here; in the data, active = 1.25 or more and inactive = the rest. Single values are uncertain, as repeats are few or missing.",
  "data": [
    {"system": "Kcc2-LUC knock-in mouse primary cortical neurons (Kcc2 promoter reporter)", "assay": "Kcc2 promoter-driven luciferase activity relative to vehicle control (fold of vehicle (ratio)); higher = stronger Kcc2 promoter activation (Kcc2 expression enhancer)", "conditions": "100 nM; 48 h", "values": [
      {"smiles": "COc1ccc(C[C@@H]2NC[C@@H](O)[C@@H]2OC(C)=O)cc1", "Kcc2 promoter-driven luciferase activity": "inactive: 1.17"},
      {"smiles": "O=[N+]([O-])[O-].O=[N+]([O-])[O-].O=[N+]([O-])[O-].[Ga+3]", "note": "[gallium;nitric acid]", "Kcc2 promoter-driven luciferase activity": "inactive: 1.06"},
      {"smiles": "CC1=C(N2CC2)C(=O)C(CO)=C(N2CC2)C1=O", "Kcc2 promoter-driven luciferase activity": "inactive: 0.76"},
      {"smiles": "Cc1c(N)nc([C@H](CC(N)=O)NC[C@H](N)C(N)=O)nc1C(=O)N[C@H](C(=O)N[C@H](C)[C@@H](O)[C@H](C)C(=O)N[C@H](C(=O)NCCc1nc(-c2nc(C(=O)NCCC[S+](C)C)cs2)cs1)[C@@H](C)O)[C@@H](OC1OC(CO)C(O)C(O)C1OC1OC(CO)C(O)C(OC(N)=O)C1O)c1cnc[nH]1", "note": "(some centres not stated) [Bleomycin sulfate]", "Kcc2 promoter-driven luciferase activity": "inactive: 1.22"},
      {"smiles": "C[C@]12C(=O)C=CCC1=CC[C@@H]1[C@@H]2CC[C@]2(O)C(=O)O[C@@]3(C)[C@H]4C[C@]5(C)[C@@H](CO[C@@]16O[C@@]32[C@H]5C6=O)C(=O)O4", "note": "[Physalin B]", "Kcc2 promoter-driven luciferase activity": "inactive: 1.22"},
      {"smiles": "[Cl][Pt+2]([Cl])([Cl])[Cl].c1ccc(C2CC[N-]CC2)cc1.c1ccc(C2CC[N-]CC2)cc1", "note": "[Platinum, (OC-6-22)]", "Kcc2 promoter-driven luciferase activity": "inactive: 1.23"},
      {"smiles": "CC(C)[C@@H]1NC(=O)[C@H](C)OC(=O)[C@@H](C(C)C)NC(=O)[C@@H](C(C)C)OC(=O)[C@H](C(C)C)NC(=O)[C@H](C)OC(=O)[C@@H](C(C)C)NC(=O)[C@@H](C(C)C)OC(=O)[C@H](C(C)C)NC(=O)[C@H](C)OC(=O)[C@@H](C(C)C)NC(=O)[C@@H](C(C)C)OC1=O", "note": "[Valinomycin]", "Kcc2 promoter-driven luciferase activity": "inactive: 0.92"}
    ]}
  ]
}
